Literature values, collected in patent US11642307B2, “Ambrisentan for use in the treatment of acute renal failure” (Noorik Biopharmaceuticals AG, priority 2016, dated 2023).
For at least one compound, name, drawing or mass did not settle the structure.

System: renal toxicity of tacrolimus
Details: rats, ambrisentan 0.5 mg/kg/day co-administered with tacrolimus; cited from earlier work

With COC(c1ccccc1)(c1ccccc1)[C@H](Oc1nc(C)cc(C)n1)C(=O)O [ambrisentan] as the molecule, how does the “effect on renal toxicity of tacrolimus” value read?
The value was “can counter the renal toxicity of tacrolimus, at least partially”.
